This note sets out measurements from the supplement of paper PMC10338343.

± gives the standard deviation. The entries are a selection whose mix differs from that of the whole data set. Many entries were measured with a wide error.
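Further: 1 nM active piRISC with 0.1 nM target library at 33 °C single turnover.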

This test deals with MIWI (PIWIL1) piRISC loaded with piRNA #1 (30 nt). Nature of the test: pre-steady-state target cleavage rate (min^-1); MIWI and MILI are mouse PIWI proteins and EfPiwi is from a freshwater sponge; tags in brackets are library labels; higher = faster piRNA-guided slicing of the target. As to conditions: guide: piRNA #1 5'p-UGAGGUAGUAGGUUGUAUAGUAUCCAGAGG; auxiliary factor: 500 nM mouse GTSF1. The gist of the method:
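A burst-and-steady-state fit was used to obtain the pre-steady-state cleavage rate. The input data were sequencing reads of uncleaved targets, normalised to depth and to weakly complementary targets, from a […] transcribed, DNA-blocked target RNA library mixed with 1 nM active affinity-purified piRISC holding one synthetic guide, with or without 500 nM GTSF1 partner protein, in HEPES–potassium acetate buffer at 33 °C for 0–8 or 0–960 min. Three trials were pooled and k3 was capped at 0.0001 min^-1.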
On to GGUCAGGAUACUUUACAACCUACUACCUCA, for which the “pre-steady-state target cleavage rate” value stood at 1.54 ± 0.085.

For the sequence GGAGUGGAUACUAUACUACCUACUACCUGA, the “pre-steady-state target cleavage rate” value was 0.329 ± 0.052.

Consider GGAGACCUAUGAUUACAAGCUACUACCUCA, for which the “pre-steady-state target cleavage rate” value was 0.00213 ± 0.0044.

Turning to CCUCUGGAUACUAUACAACCUACUAUCUCA, the “pre-steady-state target cleavage rate” value amounted to 1.09 ± 0.076.

On to GGAGACCUUACUAUACACACCUACUACCUCA, for which the “pre-steady-state target cleavage rate” value was found to be 0.000545 ± 0.012.

As to GGAGACCUUACUAUACAACCUACUACCCCA, the “pre-steady-state target cleavage rate” value came out at 0.956 ± 0.086.

Consider GGAGACCUUUCUAUACAACCUAGUACCUCA, for which the “pre-steady-state target cleavage rate” value was found to be 0.238 ± 0.034.

Take CCUCUGGAUACUAUACAACCUACUACACUCA: the “pre-steady-state target cleavage rate” value is 0.874 ± 0.073.

On to CCUCUGGUUACUAAACAACCUACUACCUCA, for which the “pre-steady-state target cleavage rate” value was 2.34 ± 0.16.

GGAGACCUAUGAUUACAACUUACUACCUCA: the “pre-steady-state target cleavage rate” value turned out to be 0.00136 ± 0.0034.

With GCUCUAGGAUACUAUACAACCUACUACCUCA, the “pre-steady-state target cleavage rate” value stood at 1.85 ± 0.095.

Regarding GGAGACCUAUGAUAUGUUGGUAUACCUCA, the “pre-steady-state target cleavage rate” value is 0.000223 ± 0.018.

On to “GCUCUGGAUACUAUACAACCUUGAUGGAGA [g10:g29:cont:t1A]”, for which the “pre-steady-state target cleavage rate” value stood at 0.00238 ± 0.0048.

As to GGAGACCAUACUAUUCAACCUACUACCACA, the “pre-steady-state target cleavage rate” value came out at 1.05 ± 0.078.

Turning to GCUCUGGAUACUAUACUACCUACAACCUCA, the “pre-steady-state target cleavage rate” value came to 0.938 ± 0.086.

Regarding GCUCUGCAUACUAUACAACCUACUACCUCA, the “pre-steady-state target cleavage rate” value was 1.96 ± 0.11.

GGAGACCUAUGAUAUGUUGCUACUCCUCA: the “pre-steady-state target cleavage rate” value is 0.000419 ± 0.0083.

With GGAGACCUAUGAUAUGUUGGUGACUACCUCA, the “pre-steady-state target cleavage rate” value was determined as 0.000323 ± 0.012.

For GGAGACCUAUGAAUACAACCUACAACCUCA, the “pre-steady-state target cleavage rate” value was determined as 0.000332 ± 0.0076.

Consider GGAGACCUAUCUAUACAACCAUACUACCUCA, for which the “pre-steady-state target cleavage rate” value amounted to 0.00119 ± 0.0053.

Regarding “GCUCUGGAUACUAUACAACCUACUACCUCA [g2:g29:cont:t1A]”, the “pre-steady-state target cleavage rate” value was determined as 1.89 ± 0.1.

For CCUUUGGAUACUAUACAACCUACUACCUCA, the “pre-steady-state target cleavage rate” value is 2.3 ± 0.12.

On to GGAGACCUAUGAUAUGUACCUUCUACGUCA, for which the “pre-steady-state target cleavage rate” value amounted to 0.000149 ± 0.021.
